This is a noisy data set.
B1: human tRNA-Pro; a variant is named by its letters at N, in order (parent)
chain: GGCTCGTTGGTCTAGNGGTATGATTCTCGCTTAGGGTGCGAGAGGTCCCGGGTTCNNATCCCGGACGAGCCC

Variants of: B1
Assay: tRNA 5' processing efficiency (processed reads / all reads, maximum-likelihood estimate) (fraction); higher = more efficient 5' processing
Settings: HEK293T; construct: CMV Pol-II promoter ((+)CMV library, decapped)

Row | Variant | tRNA 5' processing efficiency
1 | GAA A14T G17C G18C T53G T54C | 0.25
2 | CAA T19A A58T | 0.2
3 | GCA T8A A14C G17C A58G | 0.2
4 | ACA T8A G18A T53A | 0.2
5 | GAA G9C G15T T53A A58G | 0.25
6 | GAA T54A C55A | 0.5
7 | GAC G17T A58T | 0.33
8 | GAA T8C A14G A20G T54C C55G T59A | 0.33
9 | GAA G9A G15T G18C | 0.25
10 | GAA T8A G9T G17T G18T | 0.5
11 | AAA G51A | 0.25
12 | GAG G17T C55T T59G | 0.33
13 | TGC A20T T54G | 0.2
14 | GAA G9T A14G G15T T19G | 0.25
15 | GAA G18A T19G T54C | 0.2
16 | GAC G15T A20C | 0.5
17 | GAT G9T G15T | 0.2
18 | GAT A20G T54G T59G | 0.33
19 | GTG G9C G17T A58T | 0.09
20 | GAA G15T A58G | 0.17
21 | GAA A14G C55A | 0.25
22 | GAA A14G G15T A20G T54C | 0.25

Row | Variant | tRNA 5' processing efficiency
23 | AGA T19G | 0.33
24 | GAA G15C T19C T54G C55T T59G | 0.33
25 | GAA C55A A58G T59A | 0.25
26 | GAA G2A T19G A20G T53A T59G | 0.5
27 | TAG G9T T54C A58C | 0.25
28 | GGA G9A T54G A58C | 0.43
29 | GAA A14T G18A A20T T53C T59C | 0.17
30 | GGA G15C G18A | 0.2
31 | GAA A14T G18T C55A A58T | 0.25
32 | TAT G15C G17C C55G | 0.14
33 | GAA G9A G17A | 0.2
34 | GAA A14G T19C T53A | 0.33
35 | GAA G17C C55A A58G | 0.25
36 | CAA G17C A20C T54C | 0.33
37 | CAG A14C G17C T19C | 0.33
38 | GAG G9T T54A A58G | 0.33
39 | GCC G9A G15T G17T A58G | 0.33
40 | TTC T19A T53A T59G | 0.2
41 | GTA A14C T54A T59C | 0.08
42 | TAA G18T A20G | 0.2
43 | GGA A14C G18T A20C C55A | 0.17
44 | GCA T53C | 0.25

Some of the entries so far, as comma-separated lines:
Row,Variant,tRNA 5' processing efficiency
16,GAC G15T A20C,0.5
17,GAT G9T G15T,0.2
18,GAT A20G T54G T59G,0.33
19,GTG G9C G17T A58T,0.09
20,GAA G15T A58G,0.17
21,GAA A14G C55A,0.25
22,GAA A14G G15T A20G T54C,0.25
23,AGA T19G,0.33
24,GAA G15C T19C T54G C55T T59G,0.33
25,GAA C55A A58G T59A,0.25
26,GAA G2A T19G A20G T53A T59G,0.5
27,TAG G9T T54C A58C,0.25
28,GGA G9A T54G A58C,0.43
29,GAA A14T G18A A20T T53C T59C,0.17
30,GGA G15C G18A,0.2
31,GAA A14T G18T C55A A58T,0.25
32,TAT G15C G17C C55G,0.14
33,GAA G9A G17A,0.2
34,GAA A14G T19C T53A,0.33
35,GAA G17C C55A A58G,0.25
36,CAA G17C A20C T54C,0.33
37,CAG A14C G17C T19C,0.33
38,GAG G9T T54A A58G,0.33
39,GCC G9A G15T G17T A58G,0.33
40,TTC T19A T53A T59G,0.2
41,GTA A14C T54A T59C,0.08

Continuation.

Row | Variant | tRNA 5' processing efficiency
45 | GAA A14T T19G | 0.25
46 | GTG G18A T19A | 0.33
47 | GAC G9T A14C T53A A58C | 0.2
48 | GTA A14G T53C | 0.33
49 | GAC G17A T19G | 0.4
50 | GGA G9T A14G | 0.25
51 | CAA A14C G15A G18C A58G | 0.78
52 | GAA T53A C55G | 0.13
53 | GAG A14C G18A C55T A58C | 0.33
54 | CAA G18A A20C T54C A58C | 0.33
55 | GAA G18A A20C T54G C55T A58T | 0.33
56 | GAA A14G G18C T54A A58T | 0.05
57 | GGA G17T T53G C55T | 0.2
58 | GGA G15T T53C | 0.25
59 | GAA G18T T53A C55A A58G | 0.25
60 | GGA G15C G18T A58T | 0.2
61 | GGC T8C G17C G18T T53C | 0.4
62 | GAT G9T A58G T59G | 0.25
63 | GAT G9C G15A | 0.25
64 | CTA T8G T19A | 0.05
65 | GAG A14G A58C | 0.33
66 | GCA G17C T59A | 0.17

Row | Variant | tRNA 5' processing efficiency
67 | GAA T8C G15T T19G T53G T54A T59C | 0.33
68 | TAA A14G A20T | 0.43
69 | GAT T8C A14T G17T T54A C55G A58T | 0.07
70 | CTA A14C G17T | 0.7
71 | TAA T19G T54G C55T A58G | 0.33
72 | GAT G9T T54A | 0.33
73 | GAG T8G G15C T19G C55G | 0.5
74 | GAA G15C G51A T54A | 0.33
75 | GAG G17A A20C A58C | 0.25
76 | GAA G9T G15C G18T T53A T54A A58G | 0.33
77 | GAA A14T G35A T53G | 0.5
78 | AAA G15T G17T G18T C55T | 0.2
79 | GAA A14G T19G C55G | 0.25
80 | GAA T8A C55G | 0.2
81 | GCA G18A A58C | 0.25
82 | AAA G15T A20G T59C | 0.4
83 | GAA G18T T53C | 0.17
84 | TAT G15A G18C | 0.25
85 | GAA T8C G15T G18A C55T | 0.5
86 | GAA G9C G15T T19A T54A | 0.25
87 | GAA T8A A14T T19A A20T C55A A58G T59C | 0.5
88 | CTA G9C A14G A58T | 0.33

Row | Variant | tRNA 5' processing efficiency
89 | GAA A20G C55A | 0.25
90 | TCA G18A | 0.33
91 | GTA T8C G15C G18C T54G | 0.5
92 | GTA G18T A20T | 0.11
93 | GAA A14G G18A T54C | 0.25
94 | GTA A14G G15T C55A A58T | 0.38
95 | GCA G9A G15T C55T | 0.2
96 | TAA G9T G15T T59G | 0.2
97 | AAA A20C G50T T53G A58C | 0.25
98 | GCA A14C G18C T19C A20G C55T | 0.33
99 | GAT T8A T53G T54G A58T | 0.25
100 | GAA A14G G15A G17T G18A A20G T59G | 0.25
101 | GAT G17C A20G C55G | 0.43
102 | TAA T53C T54A | 0.25
103 | TAA T8G C55G | 0.1
104 | GCA C55T A58C | 0.2
105 | GAC T8G G9C G18C T53G | 0.17
106 | GAA T19G T54G C55T A58T | 0.4
107 | GAA G15T G17A T19G T53A | 0.17
108 | GAA G9T T54A C55G | 0.25
109 | GAA T8C A14G C55T | 0.25
110 | GAA G15C G17T C55A T59A | 0.2

Row | Variant | tRNA 5' processing efficiency
111 | GAA A14G G15A G17A C55T A58T | 0.2
112 | GCC T19G | 0.33
113 | GAA G9T T19C A20T C55G A58T | 0.25
114 | GTA G15A G18T A20T T59A | 0.25
115 | GAA G9A G17T A20T | 0.1
116 | GAC T19G T53G T54C | 0.17
117 | GAA T8G G17T C55T | 0.25
118 | GAA G9A G17A T19A A20G | 0.33
119 | GCA G9T T19A C55G | 0.11
120 | GAA G18T T54C | 0.25
121 | GAA A14G A20G T53G C55A A58C | 0.4
122 | GAA G9C C55T T59C | 0.25
123 | GAA G9A A14T G17C | 0.25
124 | GAT G17A A58T | 0.33
125 | GAA G9C G15C G18A T19A T53C T54C | 0.25
126 | CAA G9C G15A G17C T53C | 0.5
127 | GAG T8G G9C A14C G18T A20C T53A C55T | 0.17
128 | CAA A14C T19G A20C T54C | 0.25
129 | AAC G9T C55G A58G | 0.11
130 | GAA T54C A58G | 0.13
131 | AAT A14T G18C T19G A20C T59G | 0.25
132 | GAC G17T T19A | 0.25

Exported with each value named: part of the list above.
GTA G15A G18T A20T T59A
  tRNA 5' processing efficiency: 0.25
GAA A14G A20G T53G C55A A58C
  tRNA 5' processing efficiency: 0.4
GAC G17T T19A
  tRNA 5' processing efficiency: 0.25

From the supplement of paper PMC6445147
